The supplement of paper PMC12067093, “Discovery and optimisation of a covalent ligand for TRIM25 and its application to targeted protein ubiquitination” (Chemical Science, 2025)
This is one part of the list.

Compound: CC1Cc2ccccc2N1C(=O)C1CCCN(C1)C(=O)CCl (mixture of isomers) [TRIM25 ligand 11 (diastereomer mixture)]
Test: probe-labelled cysteine peptide fold change vs DMSO (competition) (log2 fold change); higher = less target engagement (more negative = stronger competition)
Settings: THP-1, incubation time: 4 h
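Further: competitive chemoproteomic profiling in live THP-1 cells with an iodoacetamide desthiobiotin (IA-DTB) probe, comparing probe-labelled peptide intensities in compound-treated cells against DMSO-treated controls.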

Target | probe-labelled cysteine peptide fold change (10 µM) | probe-labelled cysteine peptide fold change (50 µM)
PUM3_Q15397_185_VIQCYIQYGNEEQR (UniProt Q15397) | -0.00291 | 0.0703
RAB18_Q9NP72_110_LDNWLNELETYCTR (UniProt Q9NP72) | 0.0203 | 0.149
RAD23A_P54725_344_ALGFPESLVIQAYFACEK (UniProt P54725) | -0.0237 | -0.063
RAB11FIP1_Q6WKZ4_1007_SSTLDIGALSLGLVVPCPER (UniProt Q6WKZ4) | 0.000553 | 0.0263
PXK_Q7Z7A4_112_GLQNYLNVITTNHILSNCELVK (UniProt Q7Z7A4) | 0.115 | 0.106
QRSL1_Q9H0R6_278_LCIGIPK (UniProt Q9H0R6) | 0.0202 | 0.097
RAC2_P15153_178_AVLCPQPTR (UniProt P15153) | -0.119 | -0.058
RABL6_Q3YEC7_172_VPTHVPVCVLGNYR (UniProt Q3YEC7) | 0.0329 | 0.101
RAD54B_Q9Y620_521_AAELTCLTGLFILR (UniProt Q9Y620) | 0.0598 | 0.237
RAD50_Q92878_633_LFDVCGSQDFESDLDRLK (UniProt Q92878) | 0.192 | 0.109
RAD51B_O15315_185_ELTCDEVLQR (UniProt O15315) | 0.00703 | 0.0945
QARS_P47897_433+445+456_WCIYPTYDYTHCLCDSIEHITHSLCTK (UniProt P47897) | 0.248 | 0.0569
PWP2_Q15269_630_FVCIYHVR (UniProt Q15269) | 0.216 | 0.371
PYCR3_Q53H96_49+56_NLCHFQALGCR (UniProt Q53H96) | 0.0116 | -0.211
PYGB_P11216_808_NIACSGK (UniProt P11216) | -0.111 | 0.0888
RAB3GAP2_Q9H2M9_391+395_RHGESICLSPCNTLAAVTDDFGR (UniProt Q9H2M9) | 0.0846 | 0.0437
RAD21_O60216_392_CLTPLVPEDLR (UniProt O60216) | -0.096 | 0.0227
RAD50_Q92878_102_SMVCTQK (UniProt Q92878) | -0.105 | 0.109
RAD50_Q92878_788_VCLTDVTIMER (UniProt Q92878) | 0.0899 | 0.0746
PUS7_Q96PZ0_443_CVEGQLLR (UniProt Q96PZ0) | 0.0363 | 0.0924
PYCR1_P32322_262_SLLINAVEASCIR (UniProt P32322) | 0.0613 | 0.117

Exported tab-delimited: part of the list above
Target	probe-labelled cysteine peptide fold change (10 µM)	probe-labelled cysteine peptide fold change (50 µM)
RAB11FIP1_Q6WKZ4_1007_SSTLDIGALSLGLVVPCPER (UniProt Q6WKZ4)	0.000553	0.0263
RAD54B_Q9Y620_521_AAELTCLTGLFILR (UniProt Q9Y620)	0.0598	0.237
